Reference: PubChem BioAssay AID743454 (Peter MacCallum Cancer Centre, 2014)
Test: 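Knock-downs lowering viability or raising caspase 3/7 activity in vorinostat-treated resistant cells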 (primary screen). Cells: human HCT116-VR colon cancer cells, selected for vorinostat resistance. Knock-down reagent: siRNA pool against human genes, 40 nM siRNA pool. Time to read-out: vorinostat for 24 h, read-out about 72 h after transfection. Conditions: vorinostat at 2.5 µM final. Detection: 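Two measures, CellTiter-Fluor viability and luminescent caspase 3/7 activity, each as fold change against same-plate mock wells, mean of duplicates, then screen-wide robust z-score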. Scale: viability robust z-score: higher = more viable cells than screen typical; caspase robust z-score: higher = more caspase 3/7 activity than screen typical. Rule for the call: 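Hits are knock-downs in viability class RV1/RV2 or caspase class CA1/CA2, excluding ones that killed cells in the no-drug cell-count arm; hits then retested with single siRNAs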.
Shown is one part, drawn at random, of about 18,000 deposited reagents. Over the whole deposit, 450 (2.5%) are marked active. 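Single biological run; no consistent viability z cut-off exists, so the class columns, not z-scores, define the calls.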

no.	target gene	viability hit class	caspase hit class	viability robust z-score	caspase robust z-score	Outcome
1	METTL5	no change	no change	1.34	-0.36	inactive
2	H4C7	no change	no change	-1.1	-0.16	inactive
3	TFPT	no change	no change	-1.75	0.16	inactive
4	TPTE	no change	no change	0.38	-0.22	inactive
5	PDGFB	no change	no change	-0.88	3.46	inactive
6	FBLIM1	no change	no change	0.34	2.12	inactive
7	CPSF1	no change	CA1 (caspase activation)	-0.11	5.18	active
8	VPS35	no change	no change	-1.68	2.75	inactive
9	GFRA2	no change	no change	-0.1	-0.11	inactive
10	GARIN5A	no change	no change	-0.78	1.68	inactive
11	DYNC2I2	no change	no change	0.14	2	inactive
12	ULK4	no change	no change	-0.34	0.4	inactive
13	ACTL8	no change	no change	0.25	-0.08	inactive
14	CABP7	no change	no change	0.18	0.06	inactive
15	MTUS1	no change	no change	0.4	-0.19	inactive
16	MLF1	no change	no change	-0.02	2.9	inactive
17	GIMAP4	no change	no change	-0.22	0.54	inactive
18	SETD7	no change	no change	1.12	0.12	inactive
19	PARD3B	no change	no change	0.96	-0.38	inactive
20	SPAST	no change	no change	-0.46	-1.09	inactive
21	NRDC	no change	no change	-0.52	4.8	inactive
22	SHISA5	no change	no change	-0.4	-0.2	inactive
23	LRRFIP1	no change	no change	0.46	-0.26	inactive
24	HYPK	no change	no change	1.75	-1.49	inactive
25	SRGAP3	no change	no change	0.26	-0.94	inactive
26	BPGM	no change	no change	0.96	0.62	inactive
27	BCL2L2	no change	no change	1.17	0.05	inactive
28	UAP1	no change	no change	1.56	-0.98	inactive
29	EIF3M	no change	no change	-2.74	2.76	inactive
30	SLC12A2	no change	no change	0.88	1.11	inactive
31	NR2F1	no change	no change	1.28	-0.68	inactive
32	UBE2D2	no change	no change	-0.05	-1.4	inactive
33	KMO	no change	no change	-0.17	0.16	inactive
34	NAE1	no change	no change	1.03	-0.92	inactive
35	HK3	no change	no change	0.04	1.64	inactive
36	ASXL2	no change	no change	1.12	0.28	inactive
37	GJA8	no change	no change	-2.86	1.08	inactive
38	NASP	no change	no change	-0.66	-1.02	inactive
39	AGTRAP	no change	no change	0.48	-0.4	inactive

Entries listed so far marked active, once more:
target gene	viability hit class	caspase hit class	viability robust z-score	caspase robust z-score	Outcome
CPSF1	no change	CA1 (caspase activation)	-0.11	5.18	active
